These are yes or no findings as the source states them, for the method shown. Some binding calls cover weakened binding; strength is not graded here.
Molecular target: T1, Kir6.2 from Mus musculus (mmKir6.2) H175K mutant, as the Kir6.2 subunit of H175K_(cryoEM) (Mus musculus) (UniProt Q61743)
T1 sequence: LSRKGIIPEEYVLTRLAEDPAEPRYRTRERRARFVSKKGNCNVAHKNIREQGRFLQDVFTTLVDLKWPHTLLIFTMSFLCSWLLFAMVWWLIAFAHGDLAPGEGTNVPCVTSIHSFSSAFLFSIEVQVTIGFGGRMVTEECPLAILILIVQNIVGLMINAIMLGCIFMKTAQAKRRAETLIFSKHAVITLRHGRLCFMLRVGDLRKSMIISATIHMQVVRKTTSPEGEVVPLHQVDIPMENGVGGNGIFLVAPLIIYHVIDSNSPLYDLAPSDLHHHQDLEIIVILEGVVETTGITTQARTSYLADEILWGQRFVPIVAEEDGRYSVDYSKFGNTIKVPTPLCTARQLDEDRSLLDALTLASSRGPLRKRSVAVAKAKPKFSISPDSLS
Experiment: cryo-EM structure

The chains behind the UniProt entries cited, without tags or fusion partners.
UniProt A0A1U7R319: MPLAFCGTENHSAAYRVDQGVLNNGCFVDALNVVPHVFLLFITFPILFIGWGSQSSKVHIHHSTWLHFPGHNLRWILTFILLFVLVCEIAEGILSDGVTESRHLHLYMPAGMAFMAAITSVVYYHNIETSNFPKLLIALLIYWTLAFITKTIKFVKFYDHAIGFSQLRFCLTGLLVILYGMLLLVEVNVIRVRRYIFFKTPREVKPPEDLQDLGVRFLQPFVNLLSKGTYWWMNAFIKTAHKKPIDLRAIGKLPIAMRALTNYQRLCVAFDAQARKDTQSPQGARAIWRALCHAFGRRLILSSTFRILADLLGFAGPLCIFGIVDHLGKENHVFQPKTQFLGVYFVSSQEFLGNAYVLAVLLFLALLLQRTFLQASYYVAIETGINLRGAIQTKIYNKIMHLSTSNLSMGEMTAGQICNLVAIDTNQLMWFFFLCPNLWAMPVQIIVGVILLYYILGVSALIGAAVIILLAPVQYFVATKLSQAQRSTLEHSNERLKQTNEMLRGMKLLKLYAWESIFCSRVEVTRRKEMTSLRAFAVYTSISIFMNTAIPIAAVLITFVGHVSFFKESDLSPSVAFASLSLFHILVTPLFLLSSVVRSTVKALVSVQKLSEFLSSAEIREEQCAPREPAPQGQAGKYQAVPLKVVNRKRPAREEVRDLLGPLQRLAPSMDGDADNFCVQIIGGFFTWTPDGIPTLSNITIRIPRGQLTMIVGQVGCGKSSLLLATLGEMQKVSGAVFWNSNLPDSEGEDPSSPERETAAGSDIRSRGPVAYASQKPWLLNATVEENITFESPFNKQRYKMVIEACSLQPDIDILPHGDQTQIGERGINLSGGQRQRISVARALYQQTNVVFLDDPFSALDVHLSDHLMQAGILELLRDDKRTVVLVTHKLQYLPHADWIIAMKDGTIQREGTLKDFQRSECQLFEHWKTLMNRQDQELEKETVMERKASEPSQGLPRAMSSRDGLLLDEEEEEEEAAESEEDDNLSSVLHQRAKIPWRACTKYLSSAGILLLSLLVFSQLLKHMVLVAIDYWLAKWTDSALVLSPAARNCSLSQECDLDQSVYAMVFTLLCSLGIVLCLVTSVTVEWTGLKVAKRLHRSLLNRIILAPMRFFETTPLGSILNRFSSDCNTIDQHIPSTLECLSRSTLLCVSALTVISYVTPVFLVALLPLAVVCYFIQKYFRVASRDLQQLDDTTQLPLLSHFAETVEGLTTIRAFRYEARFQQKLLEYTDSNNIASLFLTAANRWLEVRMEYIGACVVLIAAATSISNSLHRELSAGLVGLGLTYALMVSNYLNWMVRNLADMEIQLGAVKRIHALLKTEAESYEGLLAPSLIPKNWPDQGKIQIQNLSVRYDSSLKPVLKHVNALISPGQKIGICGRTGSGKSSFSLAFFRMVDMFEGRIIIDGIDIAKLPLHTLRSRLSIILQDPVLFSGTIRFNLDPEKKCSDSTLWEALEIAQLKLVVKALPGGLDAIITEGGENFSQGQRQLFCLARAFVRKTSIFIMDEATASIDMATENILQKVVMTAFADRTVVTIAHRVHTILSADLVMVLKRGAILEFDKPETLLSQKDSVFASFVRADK

SUR1 from Mesocricetus auratus (maSUR1), as the SUR1 subunit of H175K_(cryoEM) (from UniProt A0A1U7R319)
binding: binds
